Source: US12208001B2, “Methods and systems for preventing or reducing stenosis in a subject receiving a graft” (The General Hospital Corporation, priority 2012, dated 2025)

Assays:
Saphenous veins = test: Vessel compliance measured with a pressure transducer; set-up: species or system Yorkshire pigs; conditions: for relative compliance (slope of the compliance curve pertaining to physiologic pressure), Mean: 3 cm vessel sections, 1 ml saline in 0.1 ml increments; for compliance difference among artery, PTP treated vein and EDC treated vein: One-Way ANOVA; for compliance difference among artery, PTP treated vein and EDC treated vein / compliance vs untreated control vein (One-Way ANOVA): p<0.05 considered significant
Porcine jugular veins = test: Elasticity of venous tissue: stress-strain curves with a tensiometer; set-up: species or system pigs

Compound | relative compliance (slope of the compliance curve pertaining to physiologic pressure), Mean (Saphenous veins) | compliance difference among artery, PTP treated vein and EDC treated vein (Saphenous veins) | compliance vs untreated control vein (One-Way ANOVA) (Saphenous veins) | Young's Modulus (modulus of elasticity) (Porcine jugular veins; 0.1% Rose Bengal, 532 nm laser, 25 J/cm^2, N = 17, mean + SD) | increase of modulus of elasticity of venous grafts (Porcine jugular veins; treated vs untreated veins)
CCN=C=NCCCN(C)C [EDC, 1-ethyl-3-(3-dimethylaminopropyl)-carbodiimide] | 792 | no significant difference | significantly different from untreated control vein | – | –
O=C1OC2(c3cc(I)c(O)c(I)c3Oc3c2cc(I)c(O)c3I)c2c(Cl)c(Cl)c(Cl)c(Cl)c21 [PTP, Rose Bengal] | 863 | no significant difference | significantly different from untreated control vein | 1008+555 KPa | 2 fold
